# Assay results

Source: PubChem BioAssay AID1080 (Emory University Molecular Libraries Screening Center, 2008).

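A counter-screen in EP4-overexpressing cells measuring cyclic AMP with a time-resolved FRET kit under weak PGE2 stimulation. Compounds were tested at 20 µM final. A low (about EC15) PGE2 dose was present. Percent cAMP induction as a fraction of the 1 µM PGE2 response, averaged over three replicates; a higher value means more cAMP.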

Values are in %. Common to all entries: measured here: EP4 receptor counter-screen. Part of the compounds only, not a random draw; the main read-out is not listed here.

Compound,condition,cAMP induction (%)
Cc1cccc(/C=C/c2nc3ccccc3c(=O)n2Cc2ccccc2)c1,percent of 1 uM PGE2 response; plus low (about EC15) PGE2 agonist,9.12
CC(C)NC(=O)NC(=O)CSc1nnc(COc2ccccc2F)n1C(C)C1CC2CCC1C2 (stereo not drawn),percent of 1 uM PGE2 response; plus low (about EC15) PGE2 agonist,2.433
COc1ccc(-c2cc(C(F)(F)F)nc(NCc3ccco3)n2)cc1OC,percent of 1 uM PGE2 response; plus low (about EC15) PGE2 agonist,1.803
C1=C(c2ccccc2)Nc2ccccc2N=C1c1ccccc1,percent of 1 uM PGE2 response; plus low (about EC15) PGE2 agonist,-9.127
CCc1nc(SCC(=O)Nc2nc3c(s2)CCCC3)c2ccccc2n1,percent of 1 uM PGE2 response; plus low (about EC15) PGE2 agonist,48.69
CCOC(=O)c1c(NC(=O)c2ccco2)sc2c1CCCCC2,percent of 1 uM PGE2 response; plus low (about EC15) PGE2 agonist,8.577
C(=N/n1c2ccccc2c2ccccc21)/c1ccco1,percent of 1 uM PGE2 response; plus low (about EC15) PGE2 agonist,24.34
Cn1c(=O)c2c(nc(CN3CCN(c4ccccc4)CC3)n2Cc2c(F)cccc2Cl)n(C)c1=O,percent of 1 uM PGE2 response; plus low (about EC15) PGE2 agonist,-5.663
Cc1nc2c(-c3ccccc3)c(C)nn2c(C)c1CCC(=O)N1CCOCC1,percent of 1 uM PGE2 response; plus low (about EC15) PGE2 agonist,-9.143
COc1ccc(-c2nc3ccccc3n2Cc2ccccc2)cc1,percent of 1 uM PGE2 response; plus low (about EC15) PGE2 agonist,-1.027
COc1cc(/C=C/c2ccc3cccc([N+](=O)[O-])c3n2)ccc1OCC(=O)O,percent of 1 uM PGE2 response; plus low (about EC15) PGE2 agonist,-0.82
CC(C)(C)n1nnnc1C(c1ccncc1)N(Cc1ccccc1)Cc1ccco1 (stereo not drawn),percent of 1 uM PGE2 response; plus low (about EC15) PGE2 agonist,5.84
CCOC(=O)c1c(-c2ccc(C)cc2)csc1NC(=O)c1ccc(N2C(=O)CCC2=O)cc1,percent of 1 uM PGE2 response; plus low (about EC15) PGE2 agonist,6.29
O=C(c1ccccc1)N1N=C(c2ccccc2)CC1c1ccccc1O (stereo not drawn),percent of 1 uM PGE2 response; plus low (about EC15) PGE2 agonist,2.85
Cc1cccnc1N(C(=O)Nc1cccc(Cl)c1)C1=NCC(C)(C)S1,percent of 1 uM PGE2 response; plus low (about EC15) PGE2 agonist,-4.673
COc1ccc(-c2cc(-c3ccccc3)nc(N3CCCC3)n2)cc1OC,percent of 1 uM PGE2 response; plus low (about EC15) PGE2 agonist,-3.253
COc1ccccc1C(CC(=O)c1ccccc1)CC(=O)c1ccccc1,percent of 1 uM PGE2 response; plus low (about EC15) PGE2 agonist,-2.89
CCNc1nc(NCC)nc(SCCOc2ccc(C)cc2)n1,percent of 1 uM PGE2 response; plus low (about EC15) PGE2 agonist,1.577
CCCn1c(=O)[nH]c(=O)c2c1nc(-c1ccccc1OC(F)F)n2CCOC,percent of 1 uM PGE2 response; plus low (about EC15) PGE2 agonist,3.457
CC(C)Cc1nc2sc3c(=O)[nH]cnc3c2c2c1CCC2,percent of 1 uM PGE2 response; plus low (about EC15) PGE2 agonist,59.62
COc1cccc(-c2nc(N3CC(C)CC(C)C3)c3ccccc3n2)c1O (stereo not drawn),percent of 1 uM PGE2 response; plus low (about EC15) PGE2 agonist,6.393
Cc1cc(NC(=O)Cn2nnc3sc4c(c3c2=O)CCC(C(C)(C)C)C4)no1 (stereo not drawn),percent of 1 uM PGE2 response; plus low (about EC15) PGE2 agonist,14.2

Once more, the final 3:

- CC(C)Cc1nc2sc3c(=O)[nH]cnc3c2c2c1CCC2 [percent of 1 uM PGE2 response; plus low (about EC15) PGE2 agonist] | cAMP induction 59.62%
- COc1cccc(-c2nc(N3CC(C)CC(C)C3)c3ccccc3n2)c1O (stereo not drawn) [percent of 1 uM PGE2 response; plus low (about EC15) PGE2 agonist] | cAMP induction 6.393%
- Cc1cc(NC(=O)Cn2nnc3sc4c(c3c2=O)CCC(C(C)(C)C)C4)no1 (stereo not drawn) [percent of 1 uM PGE2 response; plus low (about EC15) PGE2 agonist] | cAMP induction 14.2%